Results deposited as PubChem BioAssay AID686938 (Drosophila RNAi Screening Center, 2013).
Aim: 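Looking for CRAC channel components and the factors controlling them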 (primary screen). Cell system: Drosophila S2R+ cells. Reagent: long dsRNA against Drosophila genes, about 0.25 µg dsRNA per well, roughly 10,000 cells. Timing: 5 days of knock-down before the calcium assay. Challenge: thapsigargin (SERCA pump blocker) to empty calcium stores; entry signal taken 4 min after adding it. Measured: 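Per-well fluo-4 fluorescence in two replicates, unnormalised, measured in resting cells and 4 min after store depletion by the SERCA blocker thapsigargin; ratio of the two present in few wells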. Scale: calcium entry signal: higher = stronger calcium signal after store depletion; resting calcium signal: higher = higher resting calcium signal. Rule for the call: 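Called when the plate z-score of the entry-to-rest ratio, mean of duplicates, falls below −3; wells with low overall dye signal (Fmax z below −2) or more than five off-targets excluded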. Calls: active = strongly reduced calcium entry; inactive = no strong reduction.
The deposit covers about 23,000 reagents; this is an unselected part of those that have a named target and a result. Over the whole deposit, 75 (0.33%) were called active. 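Raw plate signals without normalisation; calls rest on plate z-scores that were not deposited; ratio present for only 364 wells.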 A plus sign joins genes that one reagent is predicted to hit. Not stated in the record: the dose of the treatment.

gene	amplicon	calcium entry signal, replicate 1 (fluorescence units)	calcium entry signal, replicate 2 (fluorescence units)	resting calcium signal, replicate 1 (fluorescence units)	resting calcium signal, replicate 2 (fluorescence units)	Outcome
chinmo (Chronologically inappropriate morphogenesis)	DRSC00292	4.87e7		2.71e7		inactive
chinmo (Chronologically inappropriate morphogenesis)	DRSC00485	3.69e7	6.72e7	1.49e7	2.51e7	inactive
chinmo (Chronologically inappropriate morphogenesis)	DRSC00509	4.10e7	5.96e7	1.74e7	2.33e7	inactive
chinmo (Chronologically inappropriate morphogenesis)	DRSC22413	2.96e7	3.43e7	1.56e7	1.60e7	inactive
CG32320	DRSC21514	3.84e7	3.45e7	2.18e7	1.61e7	inactive
snf (sans fille)	DRSC18835	1.91e7	2.95e7	9.46e6	1.42e7	inactive
CG9281	DRSC20179	3.95e7	4.15e7	1.82e7	1.83e7	inactive
CG13551	DRSC21847	1.73e7	3.20e7	8.90e6	1.69e7	inactive
RpL13 (Ribosomal protein L13)	DRSC03416	1.12e7	1.72e7	8.16e6	1.12e7	inactive
Vha100-1 (Vacuolar H[+] ATPase 100kD subunit 1)	DRSC14148	3.07e7	3.77e7	1.48e7	2.09e7	inactive
ninaE (neither inactivation nor afterpotential E)	DRSC17014	3.17e7	4.20e7	5.20e7	1.91e7	inactive
emei	DRSC10897	3.10e7	3.75e7	1.55e7	1.93e7	inactive
emei	DRSC22684	2.37e7	1.90e7	1.27e7	1.05e7	inactive
CG42534	DRSC14722	4.21e7	6.34e7	2.12e7	2.81e7	inactive
CG42534	DRSC14759	3.68e7	6.16e7	1.93e7	3.00e7	inactive
CG42534	DRSC16072	3.99e7	4.87e7	2.03e7	2.28e7	inactive
CG42534	DRSC23131	3.10e7	3.64e7	1.52e7	1.75e7	inactive
prd1 (pruning defect 1)	DRSC15227	3.13e7	4.05e7	1.66e7	2.01e7	inactive
CG8292	DRSC03082	2.98e7	4.87e7	1.49e7	2.09e7	inactive
UGP (UDP-glucose pyrophosphorylase)	DRSC10411	5.50e7	4.30e7	3.71e7	1.93e7	inactive
lncRNA:yar (yellow-achaete intergenic RNA)	DRSC17679	3.52e7	5.58e7	2.09e7	2.83e7	inactive
lncRNA:yar (yellow-achaete intergenic RNA)	DRSC21708	3.77e7	3.03e7	1.98e7	1.56e7	inactive
CG1552	DRSC19665	4.12e7	5.22e7	1.90e7	2.46e7	inactive
DCTN5-p25 (Dynactin 5, p25 subunit)	DRSC03525	4.10e7	2.52e7	2.00e7	1.19e7	inactive
CG1571	DRSC18068	3.33e7	3.49e7	1.55e7	1.50e7	inactive
CG10494	DRSC04072	4.44e7		2.30e7		inactive
CG18731	DRSC15377	4.88e7	4.68e7	2.29e7	1.90e7	inactive
Grip163	DRSC10538	3.13e7	4.22e7	1.59e7	1.95e7	inactive
CG14324	DRSC14803	3.48e7	5.04e7	1.74e7	5.49e7	inactive
CG8369	DRSC16413	4.17e7	3.12e7	2.05e7	1.49e7	inactive
Thor	DRSC00770	4.02e7		2.57e7		inactive
CG10588	DRSC11628	3.41e7	4.91e7	1.58e7	2.18e7	inactive
CG10353	DRSC19354	4.78e7	6.36e7	2.21e7	2.75e7	inactive
CG6276	DRSC16007	3.66e7	4.91e7	1.54e7	2.08e7	inactive
Acp53C14c (Accessory gland protein 53C14c)	DRSC05626	2.59e7	5.21e7	1.33e7	2.40e7	inactive
jigr1 (jing interacting gene regulatory 1)	DRSC13724	3.27e7	3.95e7	1.59e7	1.90e7	inactive
jigr1 (jing interacting gene regulatory 1)	DRSC15233	3.84e7	3.23e7	1.86e7	1.36e7	inactive
jigr1 (jing interacting gene regulatory 1)	DRSC22617	4.12e7	3.78e7	2.43e7	1.84e7	inactive
dre4	DRSC08714	1.58e7	1.86e7	9.58e6	1.03e7	inactive
Tl (Toll)	DRSC16885	4.10e7	4.94e7	1.78e7	2.13e7	inactive
CG17752	DRSC15262	3.94e7	3.87e7	6.64e7	1.81e7	inactive
Chd3	DRSC11114	3.34e7	5.57e7	1.49e7	2.23e7	inactive
heix (heixuedian)	DRSC03542	3.69e7		2.07e7		inactive
Vha13 (Vacuolar H[+] ATPase 13kD subunit)	DRSC16895	3.66e7	4.72e7	2.69e7	3.71e7	inactive
Hsp67Ba (Heat shock gene 67Ba)	DRSC11191	2.22e7	3.15e7	1.24e7	1.36e7	inactive
Gprk2 (G protein-coupled receptor kinase 2)	DRSC16682	1.74e7	2.36e7	8.80e6	1.18e7	inactive
Gprk2 (G protein-coupled receptor kinase 2)	DRSC23336	3.48e7	4.03e7	1.80e7	1.71e7	inactive
lncRNA:CR43435 (long non-coding RNA:CR43435)	DRSC12414	2.29e7	3.25e7	1.18e7	1.46e7	inactive
eIF2gamma + Su(var)3-9	DRSC13081	2.53e7	2.01e7	1.28e7	1.07e7	inactive
eIF2gamma + Su(var)3-9	DRSC16873	3.44e7	4.69e7	1.58e7	2.00e7	inactive
CG10802	DRSC17762	5.13e7	5.01e7	2.22e7	2.24e7	inactive
CG7011	DRSC09347	5.73e7	3.96e7	2.46e7	2.10e7	inactive
EMC7 (ER membrane protein complex subunit 7)	DRSC07162	5.11e7	4.24e7	1.77e7	1.97e7	inactive
CG13630	DRSC14631	4.06e7	4.15e7	1.71e7	1.78e7	inactive
Fibp	DRSC11031	2.81e7	3.43e7	1.41e7	2.35e7	inactive
CG7275	DRSC10796	3.23e7	2.60e7	2.74e7	1.52e7	inactive
CG9568	DRSC03265	3.88e7	3.69e7	1.73e7	1.78e7	inactive
CG7841	DRSC10922	3.18e7	5.61e7	1.60e7	2.28e7	inactive

3 entries already listed, sorted by “calcium entry signal, replicate 1 (fluorescence units)”, low to high.
gene	amplicon	calcium entry signal, replicate 1 (fluorescence units)	calcium entry signal, replicate 2 (fluorescence units)	resting calcium signal, replicate 1 (fluorescence units)	resting calcium signal, replicate 2 (fluorescence units)	Outcome
emei	DRSC22684	2.37e7	1.90e7	1.27e7	1.05e7	inactive
emei	DRSC10897	3.10e7	3.75e7	1.55e7	1.93e7	inactive
CG42534	DRSC14722	4.21e7	6.34e7	2.12e7	2.81e7	inactive
